Results published in publication PMC12431657, “Discovery and mechanistic insights of dibenzoylmethane as a broad spectrum inhibitor of coronavirus” (PLOS Pathogens, 2025).
Counter-ions that a name gives are not always drawn. Like-named read-outs stand apart in the source and are kept apart here. The campaign covered roughly 3,300 compounds. About 95 (3%) showed an effect of 50% or more. The list shows a part of the results.

System: HCoV-229E
Design: species or system Huh-7; HTS, protection from HCoV-229E induced cell death, luminescent cell viability (CellCounting-Lite 2.0), inhibition rate
Settings: 24 h post infection, 1 h compound pre-incubation, 10 µM, inhibitor

Row | SMILES | 229E Inhibition rate [%] | 229E Inhibition rate (229E Inhibition rate, 24 h) [%]
1 | O=C1CCCCC1=O [1,2-Cyclohexanedione] | 20.8 | –
2 | O=Cc1ccc(O)c(O)c1 [Protocatechualdehyde] | 10.5 | –
3 | OC[C@@H](O)C(O)[C@H](O)CO [D-Arabitol] | 46.4 | –
4 | N[C@@H](CCC(=O)N[C@@H](CS)C(=O)O)C(=O)O [Gamma-glutamylcysteine] | 25.4 | –
5 | COc1cc2c(cc1O)C[C@H]1c3c(cc(O)c(OC)c3-2)CCN1C [Boldine] | 13.1 | –
6 | Cn1c(=O)c2c(ncn2CC(=O)O)n(C)c1=O [Acefylline] | 13 | –
7 | O=C1O[C@H](CO)[C@@H](O)[C@H](O)[C@H]1O [D-(+)-Glucono-1,5-lactone] | 14.2 | –
8 | CC(=O)N[C@@H](CC(=O)O)C(=O)O [N-Acetyl-L-aspartic acid] | 0 | –
9 | C=C(C)[C@@H]1CC[C@]2(C)CC[C@]3(C)[C@H](CC[C@@H]4[C@@]5(C)CCC(=O)C(C)(C)[C@@H]5CC[C@]43C)[C@@H]12 [Lupenone] | 9.9 | –
10 | O=C(CO)CO [1,3-Dihydroxyacetone] | 35.5 | –
11 | COc1cc2c(c(OC)c1OC)-c1c(cc3c(c1OC)OCO3)C[C@H](C)[C@@](C)(O)C2 [Schisandrol B] | 7.8 | –
12 | CC(=O)c1ccc(O)cc1C [4′-Hydroxy-2′-methylacetophenone] | 10.9 | –
13 | CN1[C@H]2C[C@H](OC(=O)[C@H](CO)c3ccccc3)C[C@@H]1[C@@H](O)C2 [Anisodamine (hydrobromide)] | – | 5.4
14 | O=c1cccccc1 [Tropone] | 6.6 | –
15 | Cc1ncc(C[n+]2csc(CCO)c2C)c(N)n1 [Thiamine monochloride] | – | 10.3
16 | C[C@H](CC[C@@H](O[C@@H]1O[C@H](CO)[C@@H](O)[C@H](O)[C@H]1O[C@@H]1O[C@H](CO)[C@@H](O)[C@H](O)[C@H]1O)C(C)(C)O)[C@H]1CC[C@@]2(C)[C@@H]3CC=C4[C@@H](CC[C@H](O[C@@H]5O[C@H](CO)[C@@H](O)[C@H](O)[C@H]5O)C4(C)C)[C@]3(C)[C@H](O)C[C@]12C [Mogroside III-E] | 20.6 | –
17 | CC(C)(S)[C@@H](N)C(=O)O [Penicillamine] | 11.1 | –
18 | C[C@H]1CC[C@]2(NC1)O[C@H]1C[C@H]3[C@@H]4CC[C@H]5C[C@@H](O[C@@H]6O[C@H](CO)[C@H](O[C@@H]7O[C@H](CO)[C@@H](O)[C@H](O[C@@H]8OC[C@@H](O)[C@H](O)[C@H]8O)[C@H]7O[C@@H]7O[C@H](CO)[C@@H](O)[C@H](O)[C@H]7O)[C@H](O)[C@H]6O)CC[C@]5(C)[C@H]4CC[C@]3(C)[C@H]1[C@@H]2C [Tomatine] | 11.4 | –

Row | SMILES | 229E Inhibition rate [%] | 229E Inhibition rate (229E Inhibition rate, 24 h) [%]
19 | O=c1ccc2ccc(O)c(O)c2o1 [Daphnetin] | 22.3 | –
20 | COc1ccc([C@H]2OC[C@H]3[C@@H]2CO[C@@H]3c2ccc(OC)c(OC)c2)cc1OC [Pinoresinol dimethyl ether] | – | 18
21 | CC(=O)NCCc1c[nH]c2ccc(O)cc12 [N-Acetyl-5-hydroxytryptamine] | 0 | –
22 | CN(C)c1nc2c(ncn2[C@@H]2O[C@H](CO)[C@@H](O)[C@H]2O)c(=O)[nH]1 [N2,N2-Dimethylguanosine] | 18.2 | –
23 | COc1c(O[C@@H]2O[C@H](CO[C@@H]3OC[C@@H](O)[C@H](O)[C@H]3O)[C@@H](O)[C@H](O)[C@H]2O)cc2occ(-c3ccc(O)cc3)c(=O)c2c1O [Tectorigenin 7-O-Xylosyl Glucoside] | 13.2 | –
24 | O=c1c(O)c(-c2ccc(O[C@@H]3O[C@H](CO)[C@@H](O)[C@H](O)[C@H]3O)c(O)c2)oc2cc(O)cc(O)c12 [Spiraeoside] | 32.6 | –
25 | O=C1O[C@H]2[C@@H]3OC(=O)c4cc(O)c(O)c(O)c4-c4c(O)c(O)c5oc(=O)c6c(c(O)c(O)c7oc(=O)c4c5c76)-c4c(cc(O)c(O)c4O)C(=O)OC[C@H]3OC(O)[C@@H]2OC(=O)c2cc(O)c(O)c(O)c2-c2c1cc(O)c(O)c2O (mixture of isomers) [Punicalagin] | 13.6 | –
26 | OCC1=C[C@@H](O)[C@@H]2C=CO[C@@H](O[C@@H]3O[C@H](CO)[C@@H](O)[C@H](O)[C@H]3O)[C@H]12 [Aucubin] | 11.7 | –
27 | c1csc(-c2ccc(-c3cccs3)s2)c1 [2,2':5',2''-Terthiophene] | 21.7 | –
28 | O=C(O)c1ccc2ccccc2c1O [1-Hydroxy-2-naphthoic acid] | 0 | –
29 | COC(=O)c1ccccc1O [Methyl Salicylate] | 8.1 | –
30 | COc1cc([C@@H]2Oc3c(O)cc([C@H]4Oc5cc(O)cc(O)c5C(=O)[C@@H]4O)cc3[C@H]2CO)ccc1O [Silychristin] | 11.3 | –
31 | O=C(/C=C/c1ccc(O)c(O)c1)O[C@@H]1C[C@](OC(=O)/C=C/c2ccc(O)c(O)c2)(C(=O)O)C[C@@H](O)[C@H]1O [1,3-Dicaffeoylquinic acid] | 7.4 | –
32 | CC(C)[C@@H]1CC[C@@H](C)C[C@H]1O [(-)-Menthol] | – | 9.8
33 | C/C(=C\C(=O)CC(C)C(=O)O)[C@H]1C[C@H](O)[C@@]2(C)C3=C(C(=O)C[C@]12C)[C@@]1(C)CCC(=O)C(C)(C)[C@@H]1C[C@@H]3O (stereo partly drawn) [Ganoderenic acid A] | 41.5 | –
34 | C[C@@H]([C@H](C)O)[C@H](N)C(=O)O [(2S,3R,4S)-4-Hydroxyisoleucine] | 14 | –
35 | OC[C@H]1OC(O[C@H]2[C@H](O)[C@@H](CO)OC(O[C@H]3[C@H](O)[C@@H](CO)OC(O)[C@@H]3O)[C@@H]2O)[C@H](O)[C@@H](O)[C@@H]1O (stereo partly drawn) [Laminaran] | 8.9 | –
36 | O=C[C@H](O)[C@@H](O)[C@@H](CO)O[C@@H]1OC[C@@H](O[C@@H]2OC[C@@H](O[C@@H]3OC[C@@H](O[C@@H]4OC[C@@H](O)[C@H](O)[C@H]4O)[C@H](O)[C@H]3O)[C@H](O)[C@H]2O)[C@H](O)[C@H]1O [1,4-b-D-Xylopentaose] | 9.4 | –

Reformatted: 9 of the compounds above.

| Row | SMILES | 229E Inhibition rate [%] | 229E Inhibition rate (229E Inhibition rate, 24 h) [%] |
| --- | --- | --- | --- |
| 28 | O=C(O)c1ccc2ccccc2c1O [1-Hydroxy-2-naphthoic acid] | 0 | – |
| 29 | COC(=O)c1ccccc1O [Methyl Salicylate] | 8.1 | – |
| 30 | COc1cc([C@@H]2Oc3c(O)cc([C@H]4Oc5cc(O)cc(O)c5C(=O)[C@@H]4O)cc3[C@H]2CO)ccc1O [Silychristin] | 11.3 | – |
| 31 | O=C(/C=C/c1ccc(O)c(O)c1)O[C@@H]1C[C@](OC(=O)/C=C/c2ccc(O)c(O)c2)(C(=O)O)C[C@@H](O)[C@H]1O [1,3-Dicaffeoylquinic acid] | 7.4 | – |
| 32 | CC(C)[C@@H]1CC[C@@H](C)C[C@H]1O [(-)-Menthol] | – | 9.8 |
| 33 | C/C(=C\C(=O)CC(C)C(=O)O)[C@H]1C[C@H](O)[C@@]2(C)C3=C(C(=O)C[C@]12C)[C@@]1(C)CCC(=O)C(C)(C)[C@@H]1C[C@@H]3O (stereo partly drawn) [Ganoderenic acid A] | 41.5 | – |
| 34 | C[C@@H]([C@H](C)O)[C@H](N)C(=O)O [(2S,3R,4S)-4-Hydroxyisoleucine] | 14 | – |
| 35 | OC[C@H]1OC(O[C@H]2[C@H](O)[C@@H](CO)OC(O[C@H]3[C@H](O)[C@@H](CO)OC(O)[C@@H]3O)[C@@H]2O)[C@H](O)[C@@H](O)[C@@H]1O (stereo partly drawn) [Laminaran] | 8.9 | – |
| 36 | O=C[C@H](O)[C@@H](O)[C@@H](CO)O[C@@H]1OC[C@@H](O[C@@H]2OC[C@@H](O[C@@H]3OC[C@@H](O[C@@H]4OC[C@@H](O)[C@H](O)[C@H]4O)[C@H](O)[C@H]3O)[C@H](O)[C@H]2O)[C@H](O)[C@H]1O [1,4-b-D-Xylopentaose] | 9.4 | – |
